Results deposited as PubChem BioAssay AID743121 (NCATS, 2013).
The deposit covers about 26,000 reagents; below is an unselected part. Over the whole deposit, 167 (0.63%) are marked active. 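Calls are per gene from RSA p-values that are not deposited; an individual active-marked siRNA can sensitise only weakly.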 The numbers tell different reagents against one gene apart. Further read-outs or replicates are left out here. No sequences are given here.

- Screen: 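Genes whose silencing strengthens cell killing by camptothecin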 (primary screen)
- Cells: MDA-MB-231 cells, a human breast cancer line
- Reagents: single siRNA against human genes, 20 nM siRNA (0.8 pmol per well)
- Timing: 120 h (drug added 48 h after transfection, read 72 h later)
- Treatment: camptothecin 20 nM (about EC30) for 72 h; vehicle 0.1% DMSO in parallel plates
- Read-out: 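Cell viability by ATP luminescence (CellTiter-Glo) as % of non-targeting siRNA wells, and the log2 ratio of viability without drug over viability with camptothecin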
- Scale: log2 vehicle/camptothecin viability: higher = stronger sensitisation to camptothecin; viability with camptothecin: higher = more viable cells
- Units: viability with camptothecin in % of control
- Call rule: 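Each gene scored by redundant siRNA activity (RSA) over its individual siRNA ratios; a gene is called active at p < 0.001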

With GATA1 (GATA binding protein 1) #1, how do the results read?
log2 vehicle/camptothecin viability: -0.0116; viability with camptothecin: 88.8; Outcome: inactive

How did the screen score GATA1 (GATA binding protein 1) #2?
log2 vehicle/camptothecin viability: -0.196; viability with camptothecin: 94.1; Outcome: inactive

Which result is listed for GATA1 (GATA binding protein 1) #3?
log2 vehicle/camptothecin viability: -0.366; viability with camptothecin: 33.2; Outcome: inactive

With GATA1 (GATA binding protein 1) #4, what was measured?
log2 vehicle/camptothecin viability: -0.141; viability with camptothecin: 75.1; Outcome: inactive

Which result is listed for CYP3A7 (cytochrome P450 family 3 subfamily A member 7) #1?
log2 vehicle/camptothecin viability: -0.245; viability with camptothecin: 122; Outcome: inactive

What did the screen give for CYP3A7 (cytochrome P450 family 3 subfamily A member 7) #2?
log2 vehicle/camptothecin viability: 0.0583; viability with camptothecin: 87; Outcome: inactive

For CYP3A7 (cytochrome P450 family 3 subfamily A member 7) #3, what does the deposit list?
log2 vehicle/camptothecin viability: -0.118; viability with camptothecin: 82.8; Outcome: inactive

Which result is listed for CYP3A7 (cytochrome P450 family 3 subfamily A member 7) #4?
log2 vehicle/camptothecin viability: -0.0828; viability with camptothecin: 80.1; Outcome: inactive

How did the screen score HMGB2 (high mobility group box 2) #1?
log2 vehicle/camptothecin viability: 0.0855; viability with camptothecin: 42.1; Outcome: inactive

What is on record for HMGB2 (high mobility group box 2) #2?
log2 vehicle/camptothecin viability: -0.0163; viability with camptothecin: 93.8; Outcome: inactive

For HMGB2 (high mobility group box 2) #3, what was measured?
log2 vehicle/camptothecin viability: 0.0146; viability with camptothecin: 56.7; Outcome: inactive

With HMGB2 (high mobility group box 2) #4, what was measured?
log2 vehicle/camptothecin viability: -0.286; viability with camptothecin: 49.8; Outcome: inactive

Which result is listed for NENF (neudesin neurotrophic factor) #1?
log2 vehicle/camptothecin viability: 0.0632; viability with camptothecin: 94.9; Outcome: inactive

With NENF (neudesin neurotrophic factor) #2, what was measured?
log2 vehicle/camptothecin viability: 0.0207; viability with camptothecin: 98.6; Outcome: inactive

What did the screen give for NENF (neudesin neurotrophic factor) #3?
log2 vehicle/camptothecin viability: 0.15; viability with camptothecin: 31.8; Outcome: inactive

With NENF (neudesin neurotrophic factor) #4, what does the deposit list?
log2 vehicle/camptothecin viability: -0.131; viability with camptothecin: 83.4; Outcome: inactive

What is on record for RAD52 (RAD52 DNA repair protein) #1?
log2 vehicle/camptothecin viability: -0.222; viability with camptothecin: 96.1; Outcome: inactive

Which result is listed for RAD52 (RAD52 DNA repair protein) #2?
log2 vehicle/camptothecin viability: -0.0607; viability with camptothecin: 86.5; Outcome: inactive

With RAD52 (RAD52 DNA repair protein) #3, what does the deposit list?
log2 vehicle/camptothecin viability: 0.217; viability with camptothecin: 29.3; Outcome: inactive

What did the screen give for CLCA4 (chloride channel accessory 4) #1?
log2 vehicle/camptothecin viability: -0.301; viability with camptothecin: 86.3; Outcome: inactive

Which result is listed for CLCA4 (chloride channel accessory 4) #2?
log2 vehicle/camptothecin viability: -0.347; viability with camptothecin: 122; Outcome: inactive

What did the screen give for CLCA4 (chloride channel accessory 4) #3?
log2 vehicle/camptothecin viability: 0.0289; viability with camptothecin: 62.3; Outcome: inactive

With CLCA4 (chloride channel accessory 4) #4, what was measured?
log2 vehicle/camptothecin viability: -0.206; viability with camptothecin: 82; Outcome: inactive

How did the screen score SERPINI1 (serpin family I member 1) #1?
log2 vehicle/camptothecin viability: 0.0744; viability with camptothecin: 81.3; Outcome: inactive

How did the screen score SERPINI1 (serpin family I member 1) #2?
log2 vehicle/camptothecin viability: 0.08; viability with camptothecin: 104; Outcome: inactive

For SERPINI1 (serpin family I member 1) #3, what was measured?
log2 vehicle/camptothecin viability: 0.297; viability with camptothecin: 16.4; Outcome: inactive

What did the screen give for SERPINI1 (serpin family I member 1) #4?
log2 vehicle/camptothecin viability: 0.0035; viability with camptothecin: 96.2; Outcome: inactive

With TCF3 (transcription factor 3) #1, how do the results read?
log2 vehicle/camptothecin viability: -0.0951; viability with camptothecin: 76.6; Outcome: inactive

For TCF3 (transcription factor 3) #2, how do the results read?
log2 vehicle/camptothecin viability: 0.0793; viability with camptothecin: 16; Outcome: inactive

For TCF3 (transcription factor 3) #3, how do the results read?
log2 vehicle/camptothecin viability: -0.224; viability with camptothecin: 104; Outcome: inactive

What is on record for TCF3 (transcription factor 3) #4?
log2 vehicle/camptothecin viability: -0.187; viability with camptothecin: 69; Outcome: inactive

Which result is listed for ALDH5A1 (aldehyde dehydrogenase 5 family member A1) #1?
log2 vehicle/camptothecin viability: -0.172; viability with camptothecin: 115; Outcome: inactive

For ALDH5A1 (aldehyde dehydrogenase 5 family member A1) #2, what was measured?
log2 vehicle/camptothecin viability: 0.0293; viability with camptothecin: 70; Outcome: inactive

What did the screen give for ALDH5A1 (aldehyde dehydrogenase 5 family member A1) #3?
log2 vehicle/camptothecin viability: -0.018; viability with camptothecin: 25.8; Outcome: inactive

Which result is listed for ALDH5A1 (aldehyde dehydrogenase 5 family member A1) #4?
log2 vehicle/camptothecin viability: 0.112; viability with camptothecin: 88.8; Outcome: inactive

An excerpt from the list above, as a working copy:
NENF (neudesin neurotrophic factor) #4: log2 vehicle/camptothecin viability = -0.131; viability with camptothecin = 83.4; Outcome = inactive
RAD52 (RAD52 DNA repair protein) #1: log2 vehicle/camptothecin viability = -0.222; viability with camptothecin = 96.1; Outcome = inactive
RAD52 (RAD52 DNA repair protein) #2: log2 vehicle/camptothecin viability = -0.0607; viability with camptothecin = 86.5; Outcome = inactive
